We go through two substances from article PMC11474084, “Capturing a methanogenic carbon monoxide dehydrogenase/acetyl-CoA synthase complex via cryogenic electron microscopy” (Proceedings of the National Academy of Sciences of the …, 2024).

Protein sequences, listed by entry. Tags and fused reporters are not part of them.
UniProt A0A0E3NEI1: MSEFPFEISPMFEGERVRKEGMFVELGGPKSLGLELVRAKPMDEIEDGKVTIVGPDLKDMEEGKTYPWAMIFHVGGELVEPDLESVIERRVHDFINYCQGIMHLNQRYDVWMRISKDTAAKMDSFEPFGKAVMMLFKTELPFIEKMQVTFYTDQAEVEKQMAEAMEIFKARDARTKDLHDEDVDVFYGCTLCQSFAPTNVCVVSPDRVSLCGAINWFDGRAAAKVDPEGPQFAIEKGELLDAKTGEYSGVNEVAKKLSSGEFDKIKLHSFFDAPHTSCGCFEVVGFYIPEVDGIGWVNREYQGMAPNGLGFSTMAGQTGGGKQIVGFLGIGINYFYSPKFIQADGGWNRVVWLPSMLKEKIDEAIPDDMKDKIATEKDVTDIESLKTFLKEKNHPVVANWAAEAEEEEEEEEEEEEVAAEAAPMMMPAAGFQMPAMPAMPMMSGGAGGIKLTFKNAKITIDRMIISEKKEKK
UniProt A0A0E3KZD0: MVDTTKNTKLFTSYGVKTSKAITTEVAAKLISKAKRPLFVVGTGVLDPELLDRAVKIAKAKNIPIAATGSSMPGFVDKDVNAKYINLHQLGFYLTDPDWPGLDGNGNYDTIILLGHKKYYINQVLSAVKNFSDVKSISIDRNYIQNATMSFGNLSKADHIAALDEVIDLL

Assay [1] addresses MetCODH α2ε2 heterotetramer (Methanosarcina thermophila). As to the kind of experiment: cryo-EM structure; purified native ACDS complex, 4 mg/mL in 25 mM MOPS, 25 mM Na2SO4, pH 7.2; chameleon-plunged, dispense-to-plunge time 150 ms; on-grid dissociation gave CODH tetramer (2.8 Å), CODH/ACS pentamer and hexamer (3.2 Å each); both purified.
Assay [2] addresses Methanosarcina thermophila carbon monoxide dehydrogenase (MetCODH) α subunit (Methanosarcina thermophila). Briefly: cryo-EM structure; purified native ACDS complex, 1 mg/mL in 25 mM MOPS, 25 mM Na2SO4, pH 7.2, with 0.1% glutaraldehyde; blot-plunged on Cryoplunge 3 (Cp3), anaerobic; on-grid dissociation gave CODH tetramer only (3.3 Å); both purified.
Assay [3] has the same target. As to the kind of experiment: cryo-EM structure; purified native ACDS complex, 4 mg/mL in 25 mM MOPS, 25 mM Na2SO4, pH 7.2; chameleon-plunged, dispense-to-plunge time 150 ms; on-grid dissociation gave CODH tetramer (2.8 Å), CODH/ACS pentamer and hexamer (3.2 Å each); both purified.

These are yes or no findings as the source states them, for the method shown. Some entries that bind do so weakly or less than the wild type.

Consider “Methanosarcina thermophila acetyl-CoA synthase (MetACS) β subunit (from UniProt A0A0E3NEI1 1-472) (enzyme)”, for which, in assay [1], the binding entry is recorded as “binds”.

For the substance “Methanosarcina thermophila carbon monoxide dehydrogenase (MetCODH) ε subunit (from UniProt A0A0E3KZD0 1-170)”, the binding entry in assay [2] and in assay [3] was “binds” throughout.
